Our source for the inhibition values is PubChem BioAssay AID493027 (The Scripps Research Institute Molecular Screening Center, 2011).

Amino acid sequences for entries named in this document (tags omitted). A change or cut given only in a name is not applied to a line headed by its entry.
UniProt O60240: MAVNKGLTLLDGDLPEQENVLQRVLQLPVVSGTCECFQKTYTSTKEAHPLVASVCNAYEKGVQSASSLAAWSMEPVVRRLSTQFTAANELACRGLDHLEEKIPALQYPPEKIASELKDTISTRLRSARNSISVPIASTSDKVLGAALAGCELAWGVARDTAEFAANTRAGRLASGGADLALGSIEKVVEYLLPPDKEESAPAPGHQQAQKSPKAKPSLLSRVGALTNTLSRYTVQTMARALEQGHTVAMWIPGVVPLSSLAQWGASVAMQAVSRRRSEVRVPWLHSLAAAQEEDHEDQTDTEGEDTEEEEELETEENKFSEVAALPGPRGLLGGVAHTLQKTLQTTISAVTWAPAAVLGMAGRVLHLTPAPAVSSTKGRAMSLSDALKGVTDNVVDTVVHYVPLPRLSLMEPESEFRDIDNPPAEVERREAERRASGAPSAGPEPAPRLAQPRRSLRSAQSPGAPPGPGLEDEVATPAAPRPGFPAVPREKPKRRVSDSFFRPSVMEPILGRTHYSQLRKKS
UniProt Q8WTS1: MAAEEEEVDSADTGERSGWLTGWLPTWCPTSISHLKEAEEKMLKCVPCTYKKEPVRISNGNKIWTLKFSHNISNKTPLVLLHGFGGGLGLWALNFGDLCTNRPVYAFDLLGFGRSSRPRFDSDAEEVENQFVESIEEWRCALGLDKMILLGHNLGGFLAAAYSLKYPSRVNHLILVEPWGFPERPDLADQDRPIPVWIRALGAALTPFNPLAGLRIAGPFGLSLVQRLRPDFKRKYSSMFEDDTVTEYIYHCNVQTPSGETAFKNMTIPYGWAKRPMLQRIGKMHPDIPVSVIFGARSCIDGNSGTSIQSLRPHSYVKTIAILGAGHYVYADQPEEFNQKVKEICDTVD

Structures are written as SMILES. Where “and” joins values, the source holds several entries; their conditions need not be identical. Identical values can stand only once. Out of some 2,000 compounds screened, about 45 (2%) were called active.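 How the source made its calls: active means inhibition above the screen-wide mean inhibition plus 3 SD (cut at about 44% in these data); inactive means the rest.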 This is one part of the list.

For the experiment, the target named is Perilipin-1 (Homo sapiens) + 1-acylglycerol-3-phosphate O-acyltransferase ABHD5 (Homo sapiens) (UniProt O60240+Q8WTS1). Kind of experiment: ABHD5-PLIN1 interaction inhibitors, pilot screen, cell lysate, split luciferase complementation, luminescence, NIH validation set (AID 493027).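 Further: 0% = DMSO wells with the 100% control not disclosed.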 The following applies: split G. princeps luciferase complementation, 4 h; at 7.9 µM, stronger effect = higher value.
For the molecule `C=CC1=C(C(=O)O)N2C(=O)C(NC(=O)Cc3ccccc3)C2SC1` (configuration not stated), the inhibition (as a rule, the change of the read-out against control, counted positive when it falls) was inactive: 5.17%.
Turning to `CC1(C)Cc2ccccc2-c2nc(-c3ccccc3)oc(=O)c21`, the inhibition is inactive: -16.1%.
For `COc1c(C=O)c(CCN(C)C(=O)c2ccc(F)cc2)cc2c1OCO2` the value was inactive: 1.06%; for `COc1cc(C2C(C(=O)c3ccc(C)o3)=C(O)C(=O)N2Cc2cccnc2)ccc1O` (configuration not stated), inactive: -11.2%; for `CC(=O)Oc1c2occc2cc2ccc(=O)oc12`, inactive: -1.37%.
In the case of `O=c1nc2n(c3c1oc1ccccc13)Cc1ccccc1-2` it was inactive: -1.93%; in that of `COc1ccc(CCNC(=S)NC(=O)/C=C/c2ccc(C)cc2)cc1OC`, inactive: 8.05%.
Turning to `COc1ccccc1C(CC(=O)Nc1ccccc1C)c1ccc(OC(C)C)cc1` (configuration not stated), the inhibition is inactive: 0.34%.
For the molecule `OCCC1CN(Cc2ccccc2-c2ccco2)CCN1C1CCCC1` (configuration not stated), the inhibition was inactive: -3.88%.
Consider `Cc1ccc2c(c1)C(O)(c1c(C)[nH]c3ccccc13)C(=O)N2` (configuration not stated), for which the inhibition is inactive: -5.54%.
On to `Cc1c(OC(=O)CNC(=O)OC(C)(C)C)ccc2c3c(c(=O)oc12)CCC3`, for which the inhibition was inactive: 13.2%.
As to `CCCCC[C@H](O)/C=C/[C@@H]1[C@@H](CCCCCCC(=O)O)[C@@H](O)C[C@H]1O`, the inhibition is inactive: 7.47%.
Turning to `O=C(/C=C/Sc1ccccc1)c1ccccc1`, the inhibition was active: 81.5%.
For `C=CCC1(O)C(=O)N2C(=C1C(=O)N1CCOCC1)c1ccccc1CC2(C)C` (configuration not stated) the value was inactive: 1.14%; for `COC(=O)CN1CC(=O)N(c2ccccc2)C1=S`, inactive: -5.19%; for `NC(=O)c1cccnc1`, inactive: -4.63%.
`CO/N=C(\C(=O)N[C@@H]1C(=O)N2C(C(=O)O)=C(COC(C)=O)CS[C@H]12)c1csc(N)n1` (stereo in doubt): the inhibition is inactive: 1.58%.
Turning to `O=C(O)C1CSC(c2ccc3c(c2)OCO3)N1` (configuration not stated), the inhibition was inactive: -0.99%.
For `CC12CCCCN1CCCc1c2[nH]c2ccccc12` (configuration not stated), the inhibition is inactive: 3.38%.
For `Cn1c(=O)c2c(ncn2CC(O)CO)n(C)c1=O` (configuration not stated), the inhibition is inactive: -12.2%.
For the molecule `COc1cccc(N2C(=O)CC(c3c[nH]c4ccccc34)C2=O)c1` (configuration not stated), the inhibition was inactive: 0.77%.
As for `N=C1C(c2ccccc2)=C(O)CN1CCCO`, the inhibition is inactive: -11.9%.
In the case of `COc1ccccc1NC(=O)N1CCc2[nH]c3ccc(Cl)cc3c2C1` it was inactive: 24.1%.
As for `O=C1Nc2ccc3sc4ccccc4c3c2C1=O`, the inhibition is inactive: 1.27%.
In the case of `CCC(C)NCCOc1ccccc1C` (configuration not stated) it was inactive: -6.76%; in that of `COc1cc2c(cc1O)CCN(C(=O)c1ccco1)C2C` (configuration not stated), inactive: -3.54%; in that of `COc1ccc(/C=C2\CC/C(=C\c3ccc(OC)c(OC)c3)C2=O)cc1OC`, active: 59.1%.
For `CC(C)c1cc(=O)oc2c3c4c(cc12)CCCN4CCC3` the value was inactive: -2.15%; for `CSCC[C@H](NC(=O)OC(C)(C)C)C(=O)N1CCC(C(=O)N[C@@H](C)C(=O)O)CC1`, inactive: -2.64%; for `Cc1nc2c(c3c1[nH]c1ccccc13)C(=O)CC(C)(C)C2`, inactive: -1.29%.
`CN(C)c1cc(NC(=O)CN2CCOCC2)c2ccccc2n1`: the inhibition was inactive: -3.8%.
For `CC(C)(C)OC(=O)COc1cc(OCC(=O)OC(C)(C)C)c2c(=O)cc(-c3ccccc3)oc2c1` the value was inactive: 26.2%.
As for `CC(C)=CCCC1=CCC2C(=O)NNC(=O)C2C1` (configuration not stated), the inhibition is inactive: 4.31%.
With `COc1ccc(C(=O)Nc2nc3ccccc3c(=O)[nH]2)cc1`, the inhibition is inactive: -4.92%.
On to `O=C(COc1cc(O)c2c(=O)c3ccccc3oc2c1)OCc1ccccc1`, for which the inhibition was inactive: -1.69%.
On to `Cc1ccc(C2=NOC(=O)/C2=C\C=C\c2ccccc2)cc1`, for which the inhibition is active: 95.6%.
As to `Cn1cc(CN2CCC(C(=O)N3CCCCC3)CC2)c(-c2ccccc2F)n1`, the inhibition was inactive: -6.43%.
For `CCOc1ccc(CC2CCC(=O)NC2=O)cc1` (configuration not stated) the value was inactive: 3.55%; for `COc1ccc(NC(=O)C2OC3OC(C)(C)OC3C3OC(C)(C)OC23)cc1` (configuration not stated), inactive: 0.39%; for `CC(=O)Oc1ccc(C(=O)O)cc1OC(C)=O`, inactive: 2.2%.
As to `CCOC(=O)C1=C(C)N[C@@]2(O)c3ccccc3C(=O)[C@@]12O`, the inhibition was inactive: -36.6%.
Consider `O=c1c2ccccc2nc2n1CCCN2`, for which the inhibition is inactive: -2.95%.
As for `O=C(O)c1cc2cc(F)ccc2[nH]1`, the inhibition is inactive: 0.61%.
Consider `COc1ccc(C(=O)Nc2ccccc2C(=O)NC(Cc2c[nH]c3ccccc23)C(=O)O)cc1` (configuration not stated), for which the inhibition was inactive: -1.25%.
As to `Cc1cccc(N(C)C(=S)Oc2ccc3ccccc3c2)c1`, the inhibition was inactive: -11.3%.
For `CCCCc1oc2ccccc2c1C(=O)c1cc(I)c(OCCN(CC)CC)c(I)c1`, the inhibition was inactive: -6.98%.
For `O=C(O)c1cccnc1`, the inhibition was inactive: -5.93%.
In the case of `COCCCN1C(=O)/C(=C\c2cccs2)C(C(=O)OC)=C1C` it was inactive: 3.99%.
Consider `CN1C(=O)NC(c2ccc(O)cc2)C2=C1CN(c1cccc3ccccc13)C2=O` (configuration not stated), for which the inhibition was inactive: -12.2%.
For `Cc1ccccc1N1C(N)=NC(N)=NC1(C)C` the value was inactive: -3.58%; for `CC12CCC(C(=O)NCc3ccc4c(c3)OCO4)(CC1=O)C2(C)C` (configuration not stated), inactive: -2.29%.
In the case of `CC(=O)Nc1ccc(CN2CCN(C3CCCCC3)C(CCO)C2)cc1` (configuration not stated), the inhibition is inactive: -3.02%.
Take `CC1(C)O[C@@H]2C[C@H]3[C@@H]4C[C@H](F)C5=CC(=O)CC[C@]5(C)[C@H]4[C@@H](O)C[C@]3(C)[C@]2(C(=O)CO)O1`: the inhibition is inactive: -12.2%.
For `COc1ccccc1OS(=O)(=O)c1ccc(NC(C)=O)cc1` the value was inactive: -6.1%.
As to `CC12CCC(C(=O)N3CCCCC3)([C@H](Br)C1=O)C2(C)C` (some centres not stated), the inhibition is inactive: -2.39%.
In the case of `COc1ccc(C2C3C(C)=NN=C3CC(C)(O)C2C(C)=O)cc1` (configuration not stated), the inhibition was inactive: -2.63%.
Regarding `COc1cccc(OCc2nnc(-c3cccs3)o2)c1`, the inhibition was inactive: 4.79%.
For the molecule `NNC(=O)c1ccncc1`, the inhibition is inactive: -1.64%.
Take `COc1cc(NC(=S)NC(=O)c2cccs2)ccc1NC(=O)C(C)C`: the inhibition is inactive: -1.49%.
On to `COc1ccc(OC)c(C(=O)c2coc3ccc(O)cc23)c1`, for which the inhibition is inactive: 0.23%.
`C[C@]12CC[C@@H]3c4ccc(O)cc4C(=O)C[C@H]3[C@@H]1CC[C@@H]2O`: the inhibition was inactive: 15.1%.
Consider `CC(=O)C1=C(O)C(=O)OC1c1ccc(C)cc1` (configuration not stated), for which the inhibition is inactive: -3.16%.
For `Cc1c(CCOC(=O)CC23CC4CC(CC(C)(C4)C2)C3)sc[n+]1Cc1ccc([N+](=O)[O-])cc1` the value was inactive: 6.43%; for `CC(=O)OCC(=O)[C@@]1(O)CC[C@H]2[C@@H]3CCC4=CC(=O)C=C[C@]4(C)[C@H]3[C@@H](O)C[C@@]21C`, inactive: 2.14%; for `COC(=O)c1ccc(NC(=O)c2ccccc2SC)cc1`, inactive: -0.04%.
As to `COc1ccc(/C=C(/C#N)c2cccnc2)cc1OC`, the inhibition is inactive: -0.93%.
`C[C@H](CS)C(=O)N1CCC[C@H]1C(=O)O`: the inhibition is inactive: -7.65%.
Regarding `COc1cccc(N2CC34C=CC(O3)C(C(=O)O)C4C2=O)c1` (configuration not stated), the inhibition is inactive: -6.88%.
For the molecule `CC(=O)c1cn(C)c(=O)[nH]c1=O`, the inhibition was inactive: -0.12%.
Turning to `CC1=CC2(O)OCCN(CCO)C2=CC1=O` (configuration not stated), the inhibition was inactive: -7.85%.
As for `Cc1nonc1CN(C)C(=O)c1ccc(OC2CCN(C(=O)c3cccnc3)CC2)cc1`, the inhibition is inactive: -0.91%.
As for `NCCc1ccc(O)c(O)c1`, the inhibition is inactive: -5.35%.
On to `CC(C)(C)c1ccc(/C=C/C(=O)N2CCCCC2)cc1`, for which the inhibition was inactive: -10.4%.
Consider `OC(CCN1CCCC1)(c1ccccc1)C1CCCCC1` (configuration not stated), for which the inhibition was inactive: -11.5%.
Take `COCCNC(=O)CSc1ccc(Cl)cc1`: the inhibition is inactive: -15.8%.
`C[C@H](NC(=O)C1(c2ccccc2)CCN(C(=O)[C@H]2CSCN2C(=O)OC(C)(C)C)CC1)C(=O)O`: the inhibition was inactive: 4.07%.
For the molecule `COc1cc(CO)ccc1OCc1nnnn1-c1ccc(C)cc1`, the inhibition is inactive: -1.79%.
Turning to `CCCCOc1ccc(C(=O)CCN2CCCCC2)cc1`, the inhibition is inactive: 38.6%.
As to `NS(=O)(=O)c1cc2c(cc1Cl)NC(C1C[C@H]3C=C[C@@H]1C3)NS2(=O)=O` (some centres not stated), the inhibition is inactive: 0.4%.
For `S=C(NCCOCCOCCNC(=S)Nc1ccccc1)Nc1ccccc1` the value was inactive: 2.22%.
For `Nc1[nH]c(=O)ncc1F`, the inhibition is inactive: -1.49%.
Turning to `CC(C)(C)OC(=O)N1CC(O)CC1C(=O)OCC(=O)c1ccc(Cl)cc1` (configuration not stated), the inhibition was inactive: -9.04%.
In the case of `COc1ccc(/C=C\C(=O)c2c(O)ccc3c(C)cc(=O)oc23)cc1OC` it was active: 62.7%; in that of `CCOC(=O)c1oc2cc(OCC(N)=O)ccc2c(=O)c1-c1ccc(OC)c(OC)c1`, inactive: -4.45%.
Take `CN(C)CCOC(=O)C(c1ccccc1)C1(O)CCCC1` (configuration not stated): the inhibition is inactive: -5.23%.
As for `C[C@]12CCC3C(CC=C4C[C@@H](O)CC[C@@]43C)C1CCC2[C@]1(C)CCC(=O)O1` (some centres not stated), the inhibition was inactive: 0.59%.
With `O=C(O)c1ccccc1Nc1cccc(C(F)(F)F)c1`, the inhibition was inactive: 2.97%.
As to `O=C(NCCc1nc2ccccc2[nH]1)c1cccc(Br)c1`, the inhibition was inactive: -5.23%.
For `Cc1ccc2c(c1)c(C)cc(=O)n2CCC(=O)O`, the inhibition is inactive: -12.7%.
For `CC(C)(C)NCC(O)COc1ccccc1C(=O)CCc1ccccc1` (configuration not stated) the value was inactive: -1.21%.
Turning to `Nc1ccc(C(=O)O)c(O)c1`, the inhibition was inactive: -8.33% and inactive: -9.23%.
As for `N=c1nc(N2CCCCC2)cc(N)n1O`, the inhibition was inactive: 0.09%.
`CC(=O)Oc1ccc(C(c2ccc(OC(C)=O)cc2)c2ccccn2)cc1`: the inhibition is inactive: 8.99%.
As to `COc1ccc(C2OC[C@H]3O[C@H](O)[C@H](NC(C)=O)[C@@H](O)[C@@H]3O2)cc1` (some centres not stated), the inhibition is inactive: -8.14%.
As for `O=[N+]([O-])c1ccc(O)c2ncccc12`, the inhibition is inactive: -11.9%.
For `Cc1ccc(/C=N/NC(=O)C2(C)CC2(Br)Br)cc1` (configuration not stated) the value was inactive: 3.56%.
For the molecule `CC(NCCc1ccc(O)cc1)C(O)c1ccc(O)cc1` (configuration not stated), the inhibition was inactive: -2.57%.
